# Results: patent US12516015B2 (AMALIVE LIMITED, priority 2009, dated 2026)
# Read-outs that look alike come from different tables or passages of the source.
smiles,measurement,setting,value
NCCC[C@H](N)C(=O)O.O=C(O)Cc1ccccc1 [L-ornithine phenyl acetate],Results (crystalline form),"Test 148, Anti-Solvent (IPA) Addition Elevated Temperature, diethyl ether",Form II
same,Results (crystalline form),"Test 149, Anti-Solvent (IPA) Addition Ambient Temperature, diethyl ether",Form II
same,Results (crystalline form),"Test 150, Anti-Solvent (IPA) Addition (4° C.), diethyl ether",Form II
same,Results (crystalline form),"Test 151, Anti-Solvent (IPA) Addition (−21° C.), diethyl ether",Form II
same,Results (crystalline form),"Test 152, Anti-Solvent (Ethanol) Addition Ambient Temperature, diethyl ether",Form II
same,Results (crystalline form),"Test 153, Anti-Solvent (Ethanol) Addition (4° C.), diethyl ether",Form I
same,Results (crystalline form),"Test 154, Anti-Solvent (Ethanol) Addition (−21° C.), diethyl ether",Form I/II
same,Results (crystalline form),"Test 159, Anti-Solvent (IPA) Addition Elevated Temperature, ethylene glycol",Form II
same,Results (crystalline form),"Test 160, Anti-Solvent (IPA) Addition Ambient Temperature, ethylene glycol",Form II
same,Results (crystalline form),"Test 161, Anti-Solvent (IPA) Addition (4° C.), ethylene glycol",Form II
same,Results (crystalline form),"Test 162, Anti-Solvent (IPA) Addition (−21° C.), ethylene glycol",Form II
same,Results (crystalline form),"Test 163, Anti-Solvent (Ethanol) Addition Ambient Temperature, ethylene glycol",Form II
same,Results (crystalline form),"Test 164, Anti-Solvent (Ethanol) Addition (4° C.), ethylene glycol",Form II
same,Results (crystalline form),"Test 165, Anti-Solvent (Ethanol) Addition (−21° C.), ethylene glycol",Form II
same,Results (crystalline form),"Test 170, Anti-Solvent (IPA) Addition Elevated Temperature, meOAc/water (20%)",Form II
same,Results (crystalline form),"Test 171, Anti-Solvent (IPA) Addition Ambient Temperature, meOAc/water (20%)",Form II
same,Results (crystalline form),"Test 172, Anti-Solvent (IPA) Addition (4° C.), meOAc/water (20%)",Form II
same,Results (crystalline form),"Test 173, Anti-Solvent (IPA) Addition (−21° C.), meOAc/water (20%)",Form II
same,Results (crystalline form),"Test 174, Anti-Solvent (Ethanol) Addition Ambient Temperature, meOAc/water (20%)",Form II
same,Results (crystalline form),"Test 175, Anti-Solvent (Ethanol) Addition (4° C.), meOAc/water (20%)",Form I/II
same,Results (crystalline form),"Test 176, Anti-Solvent (Ethanol) Addition (−21° C.), meOAc/water (20%)",Form II
same,Results (crystalline form),"Test 181, Anti-Solvent (IPA) Addition Elevated Temperature, meOH/acetone (50:50)",Form II
same,Results (crystalline form),"Test 182, Anti-Solvent (IPA) Addition Ambient Temperature, meOH/acetone (50:50)",Form II
same,Results (crystalline form),"Test 183, Anti-Solvent (IPA) Addition (4° C.), meOH/acetone (50:50)",Form II
same,Results (crystalline form),"Test 184, Anti-Solvent (IPA) Addition (−21° C.), meOH/acetone (50:50)",Form II
same,Results (crystalline form),"Test 185, Anti-Solvent (Ethanol) Addition Ambient Temperature, meOH/acetone (50:50)",Form II
same,Results (crystalline form),"Test 186, Anti-Solvent (Ethanol) Addition (4° C.), meOH/acetone (50:50)",Form I
same,Results (crystalline form),"Test 187, Anti-Solvent (Ethanol) Addition (−21° C.), meOH/acetone (50:50)",Form I/II
same,Results (crystalline form),"Test 192, Anti-Solvent (IPA) Addition Elevated Temperature, DMF",Form II
same,Results (crystalline form),"Test 193, Anti-Solvent (IPA) Addition Ambient Temperature, DMF",Form II
same,Results (crystalline form),"Test 194, Anti-Solvent (IPA) Addition (4° C.), DMF",Form II
same,Results (crystalline form),"Test 195, Anti-Solvent (IPA) Addition (−21° C.), DMF",Form II
same,Results (crystalline form of precipitate),"Test 196, Anti-Solvent (Ethanol) Addition Ambient Temperature, solvent DMF",Form II
same,Results (crystalline form of precipitate),"Test 197, Anti-Solvent (Ethanol) Addition (4° C.), solvent DMF",Form I/II
same,Results (crystalline form of precipitate),"Test 198, Anti-Solvent (Ethanol) Addition (−21° C.), solvent DMF",Form II
same,Results (crystalline form of precipitate),"Test 203, Anti-Solvent (IPA) Addition Elevated Temperature, solvent 2-butanol",Form III
same,Results (crystalline form of precipitate),"Test 204, Anti-Solvent (IPA) Addition Ambient Temperature, solvent 2-butanol",Form II
same,Results (crystalline form of precipitate),"Test 205, Anti-Solvent (IPA) Addition (4° C.), solvent 2-butanol",Form II
same,Results (crystalline form of precipitate),"Test 206, Anti-Solvent (IPA) Addition (−21° C.), solvent 2-butanol",Form II
same,Results (crystalline form of precipitate),"Test 207, Anti-Solvent (Ethanol) Addition Ambient Temperature, solvent 2-butanol",Form II
same,Results (crystalline form of precipitate),"Test 208, Anti-Solvent (Ethanol) Addition (4° C.), solvent 2-butanol",Form I/II
same,Results (crystalline form of precipitate),"Test 209, Anti-Solvent (Ethanol) Addition (−21° C.), solvent 2-butanol",Form I/II
same,Results (crystalline form of precipitate),"Test 214, Anti-Solvent (IPA) Addition Elevated Temperature, solvent cumene",Form II
same,Results (crystalline form of precipitate),"Test 215, Anti-Solvent (IPA) Addition Ambient Temperature, solvent cumene",Form II
same,Results (crystalline form of precipitate),"Test 216, Anti-Solvent (IPA) Addition (4° C.), solvent cumene",Form II
same,Results (crystalline form of precipitate),"Test 217, Anti-Solvent (IPA) Addition (−21° C.), solvent cumene",Form II
same,Results (crystalline form of precipitate),"Test 218, Anti-Solvent (Ethanol) Addition Ambient Temperature, solvent cumene",Form II
same,Results (crystalline form of precipitate),"Test 219, Anti-Solvent (Ethanol) Addition (4° C.), solvent cumene",Form II
same,Results (crystalline form of precipitate),"Test 220, Anti-Solvent (Ethanol) Addition (−21° C.), solvent cumene",Form I/II
same,Results (crystalline form of precipitate),"Test 225, Anti-Solvent (IPA) Addition Elevated Temperature, solvent ethyl formate",Form II
same,Results (crystalline form of precipitate),"Test 226, Anti-Solvent (IPA) Addition Ambient Temperature, solvent ethyl formate",Form II
same,Results (crystalline form of precipitate),"Test 227, Anti-Solvent (IPA) Addition (4° C.), solvent ethyl formate",Form II
same,Results (crystalline form of precipitate),"Test 228, Anti-Solvent (IPA) Addition (−21° C.), solvent ethyl formate",Form II
same,Results (crystalline form of precipitate),"Test 229, Anti-Solvent (Ethanol) Addition Ambient Temperature, solvent ethyl formate",Form II
same,Results (crystalline form of precipitate),"Test 230, Anti-Solvent (Ethanol) Addition (4° C.), solvent ethyl formate",Form I
same,Results (crystalline form of precipitate),"Test 231, Anti-Solvent (Ethanol) Addition (−21° C.), solvent ethyl formate",Form I/II
same,Results (crystalline form of precipitate),"Test 236, Anti-Solvent (IPA) Addition Elevated Temperature, solvent isobutyl acetate",Form II
same,Results (crystalline form of precipitate),"Test 237, Anti-Solvent (IPA) Addition Ambient Temperature, solvent isobutyl acetate",Form II
same,Results (crystalline form of precipitate),"Test 238, Anti-Solvent (IPA) Addition (4° C.), solvent isobutyl acetate",Form II
same,Results (crystalline form of precipitate),"Test 239, Anti-Solvent (IPA) Addition (−21° C.), solvent isobutyl acetate",Form III
same,Results (crystalline form of precipitate),"Test 240, Anti-Solvent (Ethanol) Addition Ambient Temperature, solvent isobutyl acetate",Form II
same,Results (crystalline form of precipitate),"Test 241, Anti-Solvent (Ethanol) Addition (4° C.), solvent isobutyl acetate",Form II
same,Results (crystalline form of precipitate),"Test 242, Anti-Solvent (Ethanol) Addition (−21° C.), solvent isobutyl acetate",Form I/II
same,Results (crystalline form of precipitate),"Test 247, Anti-Solvent (IPA) Addition Elevated Temperature, solvent 3-methyl-1-butanol",Form II
same,Results (crystalline form of precipitate),"Test 248, Anti-Solvent (IPA) Addition Ambient Temperature, solvent 3-methyl-1-butanol",Form II
same,Results (crystalline form of precipitate),"Test 249, Anti-Solvent (IPA) Addition (4° C.), solvent 3-methyl-1-butanol",Form II
same,Results (crystalline form of precipitate),"Test 250, Anti-Solvent (IPA) Addition (−21° C.), solvent 3-methyl-1-butanol",Form II
same,Results (crystalline form of precipitate),"Test 251, Anti-Solvent (Ethanol) Addition Ambient Temperature, solvent 3-methyl-1-butanol",Form II
same,Results (crystalline form of precipitate),"Test 252, Anti-Solvent (Ethanol) Addition (4° C.), solvent 3-methyl-1-butanol",Form I/II
same,Results (crystalline form of precipitate),"Test 253, Anti-Solvent (Ethanol) Addition (−21° C.), solvent 3-methyl-1-butanol",Form I/II
same,Results (crystalline form of precipitate),"Test 258, Anti-Solvent (IPA) Addition Elevated Temperature, solvent anisole",Form II
same,Results (crystalline form of precipitate),"Test 259, Anti-Solvent (IPA) Addition Ambient Temperature, solvent anisole",Form II
same,Results (crystalline form of precipitate),"Test 260, Anti-Solvent (IPA) Addition (4° C.), solvent anisole",Form II
same,Results (crystalline form of precipitate),"Test 261, Anti-Solvent (IPA) Addition (−21° C.), solvent anisole",Form II/IV
same,Results (crystalline form of precipitate),"Test 262, Anti-Solvent (Ethanol) Addition Ambient Temperature, solvent anisole",Form II
same,Results (crystalline form of precipitate),"Test 263, Anti-Solvent (Ethanol) Addition (4° C.), solvent anisole",Form II
same,Results (crystalline form of precipitate),"Test 264, Anti-Solvent (Ethanol) Addition (−21° C.), solvent anisole",Form I
same,Results (crystalline form of precipitate),"Test 269, Anti-Solvent (IPA) Addition Elevated Temperature, solvent IPA/isopropyl acetate (1:2)",Form II
same,Results (crystalline form of precipitate),"Test 270, Anti-Solvent (IPA) Addition Ambient Temperature, solvent IPA/isopropyl acetate (1:2)",Form II
same,Results (crystalline form of precipitate),"Test 271, Anti-Solvent (IPA) Addition (4° C.), solvent IPA/isopropyl acetate (1:2)",Form II
same,Results (crystalline form of precipitate),"Test 272, Anti-Solvent (IPA) Addition (−21° C.), solvent IPA/isopropyl acetate (1:2)",Form II
same,Results (crystalline form of precipitate),"Test 273, Anti-Solvent (Ethanol) Addition Ambient Temperature, solvent IPA/isopropyl acetate (1:2)",Form II
same,Results (crystalline form of precipitate),"Test 274, Anti-Solvent (Ethanol) Addition (4° C.), solvent IPA/isopropyl acetate (1:2)",Form II
same,Results (crystalline form of precipitate),"Test 275, Anti-Solvent (Ethanol) Addition (−21° C.), solvent IPA/isopropyl acetate (1:2)",Form I
same,Results (crystalline form of precipitate),"Test 280, Anti-Solvent (IPA) Addition Elevated Temperature, solvent EtOH: 1% H20",No Solid
same,Results (crystalline form of precipitate),"Test 281, Anti-Solvent (IPA) Addition Ambient Temperature, solvent EtOH: 1% H20",No Solid
same,Results (crystalline form of precipitate),"Test 282, Anti-Solvent (IPA) Addition (4° C.), solvent EtOH: 1% H20",No Solid
same,Results (crystalline form of precipitate),"Test 283, Anti-Solvent (IPA) Addition (−21° C.), solvent EtOH: 1% H20",No Solid
same,Results (crystalline form of precipitate),"Test 284, Anti-Solvent (Ethanol) Addition Ambient Temperature, solvent EtOH: 1% H20",No Solid
same,Results (crystalline form of precipitate),"Test 285, Anti-Solvent (Ethanol) Addition (4° C.), solvent EtOH: 1% H20",No Solid
same,Results (crystalline form of precipitate),"Test 286, Anti-Solvent (Ethanol) Addition (−21° C.), solvent EtOH: 1% H20",No Solid
same,Results (crystalline form of precipitate),"Test 291, Anti-Solvent (IPA) Addition Elevated Temperature, solvent EtOH: 3% H20",No Solid
